# In paper PMC10904049:
# Results are given in words; binding and its absence hold for the method and conditions named. Binding seen in cells or lysates may run through a third protein. Binding calls can cover weak binding; strength is not graded here. Sequences can lack the tags named with a protein.
# Molecular target: Cerulean-tagged CaVβ2B subunit (Cerulean-WT β2B) (human)
# Experiment: FRET or BRET; flow cytometric FRET 2-hybrid assay in live HEK293T cells 1 day after transfection; Cerulean-β2B with Venus-tagged WT or mutant Rad; FRET efficiency against free Venus-Rad fitted with a 1:1 binding isotherm, relative dissociation constant K_d,EFF; cycloheximide 100 μM 2 hours before; cells untreated or treated with forskolin (10 or 50 μM), calyculin A (100 nM), both, or co-expressing PKAcat
row,Binder,binding
1,"Venus-tagged WT Rad (protein, UniProt O88667 1-308) MTLNGGSGASGSRGAGGRERDRRRGSTPWGPAPPLHRRSMPVDERDLQAALAPGSLATTAAGTRTQGQRLDWPEGSSDSLSSGGSGSEEGVYKVLLLGAPGVGKSALARIFGGIEDGPEAEAAGHTYDRSITVDGEEASLLVYDIWEEDGGCWLPGHCMAMGDAYVIVYSITDKGSFEKASELRVQLRRARQTDDVPIILVGNKSDLVRSREVSVDEGRACAVVFDCKFIETSAALHHNVQALFEGVVRQIRLRRDSKEDNARRQAGTRRRESLGKKAKRFLGRIVARNSRKMAFRAKSKSCHDLSVL",binds
2,"Venus-tagged F280A/F294A Rad (protein, UniProt O88667 1-308) MTLNGGSGASGSRGAGGRERDRRRGSTPWGPAPPLHRRSMPVDERDLQAALAPGSLATTAAGTRTQGQRLDWPEGSSDSLSSGGSGSEEGVYKVLLLGAPGVGKSALARIFGGIEDGPEAEAAGHTYDRSITVDGEEASLLVYDIWEEDGGCWLPGHCMAMGDAYVIVYSITDKGSFEKASELRVQLRRARQTDDVPIILVGNKSDLVRSREVSVDEGRACAVVFDCKFIETSAALHHNVQALFEGVVRQIRLRRDSKEDNARRQAGTRRRESLGKKAKRALGRIVARNSRKMAARAKSKSCHDLSVL",binds
3,"Venus-tagged 4SA-Rad (protein, UniProt O88667 1-308) MTLNGGSGASGSRGAGGRERDRRRGATPWGPAPPLHRRAMPVDERDLQAALAPGSLATTAAGTRTQGQRLDWPEGSSDSLSSGGSGSEEGVYKVLLLGAPGVGKSALARIFGGIEDGPEAEAAGHTYDRSITVDGEEASLLVYDIWEEDGGCWLPGHCMAMGDAYVIVYSITDKGSFEKASELRVQLRRARQTDDVPIILVGNKSDLVRSREVSVDEGRACAVVFDCKFIETSAALHHNVQALFEGVVRQIRLRRDSKEDNARRQAGTRRREALGKKAKRFLGRIVARNSRKMAFRAKSKACHDLSVL",binds
4,"Venus-tagged C-2SA Rad (protein, UniProt O88667 1-308) MTLNGGSGASGSRGAGGRERDRRRGSTPWGPAPPLHRRSMPVDERDLQAALAPGSLATTAAGTRTQGQRLDWPEGSSDSLSSGGSGSEEGVYKVLLLGAPGVGKSALARIFGGIEDGPEAEAAGHTYDRSITVDGEEASLLVYDIWEEDGGCWLPGHCMAMGDAYVIVYSITDKGSFEKASELRVQLRRARQTDDVPIILVGNKSDLVRSREVSVDEGRACAVVFDCKFIETSAALHHNVQALFEGVVRQIRLRRDSKEDNARRQAGTRRREALGKKAKRFLGRIVARNSRKMAFRAKSKACHDLSVL",binds
5,"Venus-tagged N-2SA Rad (protein, UniProt O88667 1-308) MTLNGGSGASGSRGAGGRERDRRRGATPWGPAPPLHRRAMPVDERDLQAALAPGSLATTAAGTRTQGQRLDWPEGSSDSLSSGGSGSEEGVYKVLLLGAPGVGKSALARIFGGIEDGPEAEAAGHTYDRSITVDGEEASLLVYDIWEEDGGCWLPGHCMAMGDAYVIVYSITDKGSFEKASELRVQLRRARQTDDVPIILVGNKSDLVRSREVSVDEGRACAVVFDCKFIETSAALHHNVQALFEGVVRQIRLRRDSKEDNARRQAGTRRRESLGKKAKRFLGRIVARNSRKMAFRAKSKSCHDLSVL",binds
6,"Venus-tagged C-2SD Rad (protein, UniProt O88667 1-308) MTLNGGSGASGSRGAGGRERDRRRGSTPWGPAPPLHRRSMPVDERDLQAALAPGSLATTAAGTRTQGQRLDWPEGSSDSLSSGGSGSEEGVYKVLLLGAPGVGKSALARIFGGIEDGPEAEAAGHTYDRSITVDGEEASLLVYDIWEEDGGCWLPGHCMAMGDAYVIVYSITDKGSFEKASELRVQLRRARQTDDVPIILVGNKSDLVRSREVSVDEGRACAVVFDCKFIETSAALHHNVQALFEGVVRQIRLRRDSKEDNARRQAGTRRREDLGKKAKRFLGRIVARNSRKMAFRAKSKDCHDLSVL",binds
7,"Venus-tagged R208A/L235A Rad (protein, UniProt O88667 1-308) MTLNGGSGASGSRGAGGRERDRRRGSTPWGPAPPLHRRSMPVDERDLQAALAPGSLATTAAGTRTQGQRLDWPEGSSDSLSSGGSGSEEGVYKVLLLGAPGVGKSALARIFGGIEDGPEAEAAGHTYDRSITVDGEEASLLVYDIWEEDGGCWLPGHCMAMGDAYVIVYSITDKGSFEKASELRVQLRRARQTDDVPIILVGNKSDLVASREVSVDEGRACAVVFDCKFIETSAAAHHNVQALFEGVVRQIRLRRDSKEDNARRQAGTRRRESLGKKAKRFLGRIVARNSRKMAFRAKSKSCHDLSVL",no binding
